# Experimental data from PubChem BioAssay AID2685 (National Center for Advancing Translational Sciences (NCATS), 2010).
# Some of the results follow. Shown are side measurements of this screen, not its main read-out; they come without a call. The list favours compounds with an active or inconclusive main result. Potencies come from curve fits of mixed quality, noted in brackets.
# Assay: qHTS Assay for Lipid Storage Modulators in Drosophila S3 Cells;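 for cell number change: cells counted by Cell Tracker Red CMTPX staining in the red channel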
# Conditions: BODIPY lipid droplet fluorescence, 18-24 h; for cell number change: measured here: cell count max response, cells fed with added oleic acid
# In short: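 Drosophila S3 cells got compounds at several concentrations plus oleic acid (400 uM solution). Laser-scanning cytometry with 488 nm excitation read lipid droplets at 500-530 nm and cells at 575-640 nm. Percent activity was relative to 20 uM Triacsin C.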
# [1] = measured here: cell number channel AC50, cells fed with added oleic acid
# [2] = measured here: lipid fluorescence (Fed channel) AC50, cells fed with added oleic acid
Structure (SMILES),cell number change [%],AC50 [1],AC50 [2]
CCN(c1ccccc1)S(=O)(=O)c1ccc(OC)c(NC(=O)CNCCc2ccccc2)c1,-39.4,"14.6 µM [falling, partial curve, poor fit]","6.51 µM [falling, single point]"
CN(C)c1cccc(C(=O)N2CCCC(C(=O)c3cc(F)ccc3F)C2)c1 (centres undefined),-2.29,,"29.1 µM [falling, single point]"
COc1ccccc1N1CCN(C(=O)C2CCN(C(=O)c3cccc(Cl)c3)CC2)CC1,0.901,,"29.1 µM [falling, single point]"
Nc1nonc1-c1noc(N2CCCCC2)n1,5.37,,
CCC(C(=O)OCc1csc(CC(=O)Nc2ccccc2C)n1)c1ccccc1 (centres undefined),8.94,,"1.46 µM [rising, full curve]"
COc1ccc(-c2nnc(SCC(=O)N3CCOCC3)o2)cc1OC,36.3,"20.6 µM [rising, single point]",
Cc1nc(C)c(-c2csc(Nc3cccnc3)n2)s1,267,"1.16 µM [rising, full curve, poor fit]","0.58 µM [rising, partial curve, poor fit]"
CCOC(=O)c1cnn(-c2ccccc2)c1-n1cccc1C(=O)C(=O)N(CC)CC,9.8,,
O=C(Cn1cc([N+](=O)[O-])ccc1=O)NCc1ccc(Cl)cc1Cl,1.08,,"29.1 µM [rising, single point]"
CC1=C(C(=O)OCC2CCCO2)C(c2ccc(O)cc2)NC(=O)N1 (centres undefined),3.04,,
CC(C)(C)n1nc(-c2ccc(Cl)cc2)c2c(N)ncnc21,-51.3,"23.1 µM [falling, single point]","20.6 µM [falling, single point]"
COc1ccc(-c2cc3c(=O)n(CC(=O)N4CCN(C)CC4)ncn3n2)cc1,30.3,"8.2 µM [rising, partial curve]","29.1 µM [rising, single point]"
NC(=O)c1c(NC(=O)C2c3ccccc3Oc3ccccc32)sc2c1CCCCC2,132,"2.59 µM [rising, full curve]","2.91 µM [rising, full curve]"
COc1ccccc1NC(=O)Cc1ccc(-c2ccccc2)cc1,5.22,,"0.58 µM [rising, single point]"
CN(C)c1ccc(N=Nc2ccccc2C(=O)OCC(=O)NC2CCCC2)cc1,-26.6,,"23.1 µM [falling, single point]"
CC(C)C(C)(C#N)NC(=O)CN1C(=O)NC2(CCCc3ccccc32)C1=O (centres undefined),0.587,,"6.51 µM [falling, single point]"
Cc1cccc(NCc2cc(Cl)cc(Cl)c2O)n1,-61.4,"10.3 µM [falling, partial curve]","11.6 µM [falling, partial curve]"
Cc1nc2nc[nH]n2c(=O)c1CC(=O)O,-27,"1.3 µM [falling, full curve, poor fit]","0.58 µM [falling, single point]"
C=CC#CC1(O)CC(C)[N+](C)(C)CC1C (centres undefined),-49.1,"7.31 µM [falling, partial curve]","13 µM [falling, partial curve]"

Structure (SMILES),cell number change [%],AC50 [1],AC50 [2]
Cc1cccc(NC2=NCC(=O)N2Cc2ccccc2)c1,24,,"6.51 µM [rising, single point]"
COc1ccc(S(=O)(=O)N2CCOCC2)cc1NC(=O)c1cccc(Cl)c1,-7.18,,"29.1 µM [falling, single point]"
CCOc1cc(CNn2cnnc2)ccc1OCC(=O)NC1CCCCC1,6.83,,"6.51 µM [rising, single point]"
CCN(Cc1ccncc1)C(=S)Nc1ccc(Cl)cc1,23.3,,"29.1 µM [falling, single point]"
O=C(COC(=O)c1ccc(CN2CCCC2=O)cc1)Nc1ccc(F)cc1,-4.28,,"5.8 µM [falling, single point]"
CCCCSc1nc(C)cc(NC(=S)Nc2ccc(OC)cc2)n1,-40.2,"2.59 µM [falling, partial curve]","2.59 µM [falling, partial curve]"
COc1ccc(-c2noc(N3CCC(C(=O)Nc4ccc(F)cc4F)CC3)n2)cc1,13,,"3.66 µM [rising, single point]"
COc1ccc(C(=O)N2N=C(c3ccccc3)CC2(O)C(F)(F)F)cc1 (centres undefined),5.39,"6.51 µM [rising, single point]",
O=C(CN1CCN(Cc2ccccc2)CC1)c1ccccc1,18.1,,"16.4 µM [rising, partial curve]"
Cc1cccc(C)c1OCC(=O)NCC1COc2ccccc2O1 (centres undefined),24.7,,"0.651 µM [rising, full curve, poor fit]"
COc1cccc(CNC(=O)CSCc2cnn(-c3ccccc3)c2-n2cccc2)c1OC,-0.237,,"1.3 µM [falling, partial curve]"
COc1ccc(NS(=O)(=O)c2ccc(C)c(C(=O)N3CCC3)c2)cc1,24.5,,
Cc1ccc(S(=O)(=O)N2CCOCC2)cc1C(=O)OCC(=O)NC1CCCC(C)C1C (centres undefined),-19.6,,"0.00517 µM [falling, full curve, poor fit]"
CCCc1nc2ccccc2c(C(=O)OCC(=O)NCc2ccco2)c1CC,-8.92,,"5.8 µM [rising, single point]"
COc1ccc(C(=O)NC(=S)NC(C)C)cc1Br,17,,"29.1 µM [rising, single point]"
N#Cc1nc(COc2ccc(-c3ccccc3)cc2)oc1NCCCN1CCOCC1,-23.7,,"3.26 µM [rising, single point]"
CCc1ccc(NC(=O)CNC(=O)Cn2ccc3ccccc3c2=O)cc1,15.4,,"29.1 µM [rising, partial curve, poor fit]"
COc1cccc(Nc2nc(NCCO)c3ccccc3n2)c1,10.4,"1.46 µM [rising, full curve, poor fit]",

# Single records (already shown).
# CCCCSc1nc(C)cc(NC(=S)Nc2ccc(OC)cc2)n1 is listed with cell number change [%]: -40.2; AC50 [1]: 2.59 µM [falling, partial curve]; AC50 [2]: 2.59 µM [falling, partial curve]
# CC(C)C(C)(C#N)NC(=O)CN1C(=O)NC2(CCCc3ccccc32)C1=O (centres undefined) is listed with cell number change [%]: 0.587; AC50 [2]: 6.51 µM [falling, single point]
